Patent US12168673B2 (Mitopower, Inc., priority 2022, dated 2024)
Some of these results come from one statement about several compounds together.

What was measured:
HepG2 cells = assay: Cellular NAD+ levels in HepG2 cells, NAD cycling assay; format: cell-based; conditions: HepG2, 10 μM, 50 μM, 100 μM and 250 μM, four hours of incubation
Procedure: HepG2 cells were seeded at densities of 1 million cells per well in a 6 well plate. The next day, cells were treated with test compounds for 4 hours and were harvested using the below protocol. Each well was washed once with 2 mL ice cold PBS which was removed and 400 μL 2M HClO4 (perchloric acid) was added to each well, which was scraped and the residue transferred to 1.5 mL tubes and spun down. 100 μL of the supernatant was transferred to a clean 1.5 mL vial and 150 μL KOH/MOPS 2M/0.6M (neutralization buffer) was added to each vial under vortex which was spun down. The pH was measured following the NAD cycling protocol.
NAD standards were prepared from 0 to 0.5 μM in water as per Table 7.
The cycling reaction was prepared as follows. 10 μl samples were added followed by water to bring the volume up to 25 μl. 25 μl of each standard was used in duplicates for the reaction. Then 50 μl of mix A (cycling mix) was added to the sample and standards. Mix A contained the following:
Reaction was initiated using 25 μL enzyme mix (15 U/ml of alcohol dehydrogenase+15 U/mL of malate dehydrogenase). […]
Reaction was initiated using a start reagent (prepared by mixing 10 μl of malate dehydrogenase and 10 μl of glutamate oxaloacetic transaminase in 1 ml of water. The reading were measured at 340 nm in a envision plate reader. The results are shown in FIGS. 4A-4D.

Plasma stability = conditions: 5 μM, 0-2 Hrs

O=C(OC1O[C@H](CO)[C@@H](O)[C@H]1O)c1cccnc1 (stereo partly drawn) [Compound 100, (3R, 4S, 5R)-3,4-dihydroxy-5-(hydroxymethyl) tetrahydrofuran-2-yl nicotinate]
NAD+ level increase compared to untreated cells (HepG2 cells): showed an increase

O=C(OC[C@H]1OC(O)[C@H](O)[C@@H]1O)c1ccccn1 (stereo partly drawn) [Compound 102, (3,4,5-trihydroxytetrahydrofuran-2-yl) methyl picolinate]
degradation of the parent molecule in human plasma (in words) (Plasma stability): slow degradation of the parent molecule
NAD+ level increase compared to untreated cells (HepG2 cells): showed an increase
